Measured values from the supplement of paper PMC4683952.
Structures can show the parent of a compound that is named as a salt. The list shows a part of the results. No stated cut-off is given here; in the data, active = 2.5 or more and inactive = the rest. Single values are uncertain here, since repeats match poorly.

Tested on: Lgr5 (MarsCy1-Lgr5-EGFP, U2OS)
Experiment: cell-surface Lgr5 expression (SCi1 fluorescence, background-subtracted) relative to WT control (fold of WT control); higher = more Lgr5 at the plasma membrane
Details: U2OS MarsCy1-Lgr5-EGFP stable; treatment time: overnight; library: Prestwick; 20 µM

SMILES | cell-surface Lgr5 expression
CNC(C)(C)Cc1ccccc1 [Mephentermine hemisulfate] | inactive: 1.94
CN1Cc2c(ccc3c2OCO3)C2C(O)Cc3cc4c(cc3C21)OCO4 (stereo not drawn) [Chelidonine (+)] | inactive: 1.67
CN1[C@@H]2CC[C@H]1C[C@@H](OC(=O)C(CO)c1ccccc1)C2 (stereo partly drawn) [Atropine sulfate monohydrate] | inactive: 1.45
CC(C)C[C@H]1C(=O)N2CCC[C@H]2[C@]2(O)O[C@](NC(=O)[C@@H]3C=C4c5cccc6[nH]c(Br)c(c56)C[C@H]4N(C)C3)(C(C)C)C(=O)N12 [Bromocryptine mesylate] | inactive: 0.718
CN1CCc2cc3c(cc2C1O)OCO3 (stereo not drawn) [Hydrastinine hydrochloride] | inactive: 2.4
CCNCC(O)c1cccc(O)c1 (stereo not drawn) [Etilefrine hydrochloride] | inactive: 1.51
CN(C)C(=O)Oc1cccc([N+](C)(C)C)c1 [Neostigmine bromide] | inactive: 1.33
CNC(=O)Oc1ccc2c(c1)[C@]1(C)CCN(C)[C@@H]1N2C [Eserine sulfate, physostigmine sulfate] | inactive: 2.13
C[C@@H]1O[C@@H](O[C@@H]2C=C3CC[C@@H]4[C@H](CC[C@]5(C)[C@@H](c6ccc(=O)oc6)CC[C@]45O)[C@@]3(C)CC2)[C@H](O)[C@H](O)[C@H]1O [Proscillaridin A] | inactive: 0.368
C#CCN(C)[C@H](C)Cc1ccccc1 [Selegiline hydrochloride] | inactive: 2.06
C[C@]12CC[C@@H](O)C[C@H]1CC[C@@H]1[C@@H]2CC[C@]2(C)C(=O)CC[C@@H]12 [3-alpha-Hydroxy-5-beta-androstan-17-one] | inactive: 1.84
O=c1[nH]c2ccccc2n1C1CCN(CCCC(c2ccc(F)cc2)c2ccc(F)cc2)CC1 [Pimozide] | inactive: 0.896
Cc1cc2c(C(C)C)c(O)c(O)c(C=O)c2c(O)c1-c1c(C)cc2c(C(C)C)c(O)c(O)c(C=O)c2c1O [Gossypol] | inactive: 1.64
CC[C@H]1CN2CC[C@H]1C[C@H]2[C@H](O)c1ccnc2ccc(OC)cc12 [Hydroquinine hydrobromide hydrate] | inactive: 2.17
NCCC(O)C(=O)NC1CC(N)C(OC2OC(CN)C(O)[C@H](O)[C@@H]2N)[C@H](OC2O[C@H](CO)[C@@H](O)[C@@H]2O)[C@@H]1O (stereo partly drawn) [Butirosin disulfate salt] | inactive: 1.81
CN1CCC2=C[C@H](O)[C@H]3OC(=O)c4cc5c(cc4[C@H]3[C@@H]21)OCO5 [Hippeastrine hydrobromide] | inactive: 1.77
CC1OC(OC2/C=C/C=C/C=C/C=C/CC/C=C/C=C/[C@H](C)[C@@H](O)[C@@H](C)[C@H](C)OC(=O)CC(O)CC(O)CC(O)CCC(O)C(O)C[C@]3(O)CC(O)C(C(=O)O)C(C2)O3)C(O)C(N)C1O (stereo partly drawn) [Nystatine] | inactive: 1.38
CCC(=O)O[C@H]1CC[C@H]2[C@@H]3CCC4=CC(=O)CC[C@]4(C)[C@H]3CC[C@]12C [Testosterone propionate] | inactive: 1.51
COc1ccc(OC)c(C(O)C(C)N)c1 (stereo not drawn) [Methoxamine hydrochloride] | inactive: 2.25

SMILES | cell-surface Lgr5 expression
C[C@@H]1CC[C@]2(NC1)O[C@H]1C[C@H]3[C@@H]4CC=C5C[C@@H](O)CC[C@]5(C)[C@H]4CC[C@]3(C)[C@H]1[C@@H]2C [Solasodine] | active: 2.78
CN1C2CC(=O)CC1C(O)C2 (stereo not drawn) [6-Hydroxytropinone] | inactive: 1.21
O=C(CCCN1CCC(n2c(=O)[nH]c3ccccc32)CC1)c1ccc(F)cc1 [Benperidol] | inactive: 2.18
COc1cc2c(cc1O)C[C@H]1c3c(cc(O)c(OC)c3-2)CCN1C [Boldine] | inactive: 1.66
COc1ccc(C(=O)OC2C[C@H]3CC[C@@H](C2)N3C)cc1OC (stereo partly drawn) [Convolamine hydrochloride] | active: 2.83
C[C@H]1CC[C@]2(NC1)O[C@H]1C[C@H]3[C@@H]4CC[C@H]5C[C@@H](O[C@@H]6O[C@H](CO)[C@H](O[C@@H]7O[C@H](CO)[C@@H](O)[C@H](O[C@@H]8OC[C@@H](O)[C@H](O)[C@H]8O)[C@H]7O[C@@H]7O[C@H](CO)[C@@H](O)[C@H](O)[C@H]7O)[C@H](O)[C@H]6O)CC[C@]5(C)[C@H]4CC[C@]3(C)[C@H]1[C@@H]2C [Tomatine] | inactive: 0.621
C[C@@H]1CN([C@H]2CC[C@](C#N)(c3ccc(F)cc3)CC2)CC[C@]1(C(=O)O)c1ccccc1 [Levocabastine hydrochloride] | inactive: 0.844
C[N+]1(C)CCCC(OC(=O)C(O)(c2ccccc2)c2ccccc2)C1 (stereo not drawn) [Mepenzolate bromide] | active: 3.47
CN1C2CCC1CC(O)C2 (stereo not drawn) [Tropine] | inactive: 0.926
OC(c1ccccc1)(c1ccccc1)C1CCNCC1 [Azacyclonol] | inactive: 0.903
COc1ccc(CC2c3cc(OC)c(OC)cc3CCN2C)cc1OC (racemic) [Laudanosine (R,S)] | inactive: 1.88
CCCC(C)(COC(N)=O)COC(=O)NC(C)C (stereo not drawn) [Carisoprodol] | inactive: 1.27
CCC1(C)CC(=O)NC(=O)C1 [Bemegride] | active: 2.51
C[C@@]12C(=O)OC(=O)[C@]1(C)[C@H]1CC[C@@H]2O1 [Cantharidin] | inactive: 0.658
CC(=O)[C@H]1CC[C@H]2[C@@H]3CC[C@H]4C[C@H](O)CC[C@]4(C)[C@H]3C(=O)C[C@]12C [Alfaxalone] | inactive: 0.985
CN1C(=O)CCS(=O)(=O)C1c1ccc(Cl)cc1 (stereo not drawn) [Chlormezanone] | inactive: 1.13
CO[C@@H]1C=C2CCN(C)[C@@H]2C2c3cc4c(cc3C(=O)OC21)OCO4 (stereo partly drawn) [Ungerine nitrate] | inactive: 1.84
CC[N+]1(C)CCCC(OC(=O)C(O)(c2ccccc2)c2ccccc2)C1 (stereo not drawn) [Pipenzolate bromide] | inactive: 2.02
CCCCCC[C@H]1C(=O)O[C@H](C)[C@H](NC(=O)c2cccc(NC=O)c2O)C(=O)O[C@@H](C)[C@@H]1OC(=O)CC(C)C [Antimycin A] | inactive: 1.03

Among those listed so far, these contain four or more nitrogen atoms:
SMILES | cell-surface Lgr5 expression
CC(C)C[C@H]1C(=O)N2CCC[C@H]2[C@]2(O)O[C@](NC(=O)[C@@H]3C=C4c5cccc6[nH]c(Br)c(c56)C[C@H]4N(C)C3)(C(C)C)C(=O)N12 [Bromocryptine mesylate] | inactive: 0.718
NCCC(O)C(=O)NC1CC(N)C(OC2OC(CN)C(O)[C@H](O)[C@@H]2N)[C@H](OC2O[C@H](CO)[C@@H](O)[C@@H]2O)[C@@H]1O (stereo partly drawn) [Butirosin disulfate salt] | inactive: 1.81
